Measurements from the supplement of paper PMC7125110.
± gives the standard error. Many of these values have a large error.

B1: glmS ribozyme (parent)
chain: AUAAAAGCGCCAGAACUACAGAAAUGUAGUUGACGAGGAGGAGGUUUAUCGAAUUUUCGGCGGAUGCCUCCAAA

Variants of: B1
Assay: KM; higher = weaker cofactor use; RNA array
Settings: with glucosamine-6-phosphate
Method in brief: (§1)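 Tracking of barcoded ribozyme variants used a hybridised Cy3 probe at 37 °C, after in situ transcription by E. coli RNA polymerase on sequenced MiSeq chips. The flowed solution held 40 μM to 10 mM glucosamine-6-phosphate in HEPES/KCl/Mg(OAc)2 buffer, and imaging ran over ~14 h. kobs was taken from exponential decay fits of normalised per-tile medians, and kcat and KM from weighted Michaelis–Menten fits.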

Variant | KM [µM]
A15G U56C | 3070 ± 1600
G41C C58U | 79.8 ± 45
A39C U45C | 3080 ± 440
A12U U55G | 104 ± 42
G40U U46C U47G | 1390 ± 1100
U49G U56A | 2720 ± 2000
U31C C70U | 249 ± 130
A12U G13A C50G C67U | 21.6 ± 18
A53G C68G | 320 ± 160
A39U U55A | 5710 ± 1200
G13A C71G | 199 ± 110
A14U A52G | 2840 ± 1300
A15U U46C | 1290 ± 210
G41U C70A | 412 ± 220
G41U C70G | 212 ± 150
A36U A48C | 326 ± 200
U30A C71A | 603 ± 230
G13U G29A | 6480 ± 1300
U45C U65A C67G | 1660 ± 630
G43A U69A | 101 ± 53
G38U U65G | 107 ± 46
U31G G59A | 21400 ± 2000
C16G | 2880 ± 1100
A36G | 1080 ± 880
A14C A53G | 4860 ± 3000

Taken from the entries so far (two entries):
Variant | KM [µM]
A15G U56C | 3070 ± 1600
G41C C58U | 79.8 ± 45

(listing goes on)

Variant | KM [µM]
G35U U54G U56A | 210 ± 130
G13U U56A C67U | 4680 ± 3800
U46C C71U | 1240 ± 290
A14G A64G | 2030 ± 810
G40U A42U | 812 ± 440
U30G U31G | 913 ± 520
A14G A53C | 1450 ± 1100
G41U U55G | 271 ± 140
A33U | 2770 ± 160
U30A G40A | 5310 ± 3700
G41U U49G | 1400 ± 1100
U31C C71A | 1470 ± 630
G37A G44U | 2110 ± 1300
U31C A52U | 1560 ± 1100
A14C G41U | 1570 ± 810
U31G G44U | 8740 ± 3600
A42U A53U | 1280 ± 640
A39U U54C | 3700 ± 1900
A36C C71A | 41 ± 31
A42G C70A | 185 ± 140
A15G A64G | 477 ± 320
A15G A64U | 3870 ± 820
G29C U65G | 4400 ± 1000
A14C C71A | 3250 ± 2700
U46G U54G | 3110 ± 510

A few values from the entries so far:
U45C U65A C67G | KM [µM]: 1660 ± 630
A39U U55A | KM [µM]: 5710 ± 1200

The results go on:

Variant | KM [µM]
A52G C68U | 2500 ± 1600
A33G U49C U57A | 585 ± 340
G40C U69C | 1610 ± 1400
G43U U65A | 5670 ± 730
G29A G32A C71A | 3640 ± 3500
A12U G43A | 2010 ± 540
U46G U69G | 16.4 ± 13
A12U A33C | 7810 ± 2600
U30A U31C | 4300 ± 500
A33U U54A C68A | 67.6 ± 46
G29U U31C | 3110 ± 1900
G41U U54A | 133 ± 100
U47G C58U | 3070 ± 1900
A14U A39U | 3050 ± 1200
A14C G37A | 2490 ± 1300
A52U U55C | 11300 ± 3000
G29U U30G | 1780 ± 820
A15C A42G A53C | 3990 ± 2900
U45A U69C | 53.9 ± 45
G40C A52G | 2990 ± 1200
U49G A53C | 2860 ± 2200
G13C U47G | 163 ± 98
U30C G37C C70U | 26 ± 26
A15U A48C | 1190 ± 910
A15U G29U | 1440 ± 930

Variant | KM [µM]
A14U C58A | 2220 ± 300
G32C U47C G62C C71U | 134 ± 92
A15C C16A G62U | 657 ± 420
U31A C67U | 995 ± 530
G38U G40A | 47.6 ± 44
A15G U47G | 617 ± 360
G13U A14G | 2720 ± 1700
A53G C70G | 17.9 ± 11
G35C G37C | 8.1 ± 7
A39U U69G | 441 ± 320
A15C U46C | 1330 ± 520
U46G C68G | 678 ± 110
U30C C70U | 1890 ± 790
C16U U30A G40A | 1030 ± 380
G44A U56G | 1460 ± 780
A48G U65G | 13000 ± 8600
A33U A39G | 4730 ± 3100
G37A G66C | 2250 ± 630
A53G U54G | 169 ± 170
G13A G29U | 777 ± 690
A12U G60A | 2040 ± 700
A48U U65G C70U | 1870 ± 1200
A33U U54G | 3070 ± 2200
G32U U46G | 9000 ± 5400
A42C U69C | 640 ± 410

Variant | KM [µM]
U46C U57C | 3690 ± 1900
U46G U49G | 982 ± 610
G32U C67G | 1520 ± 570
A39G U55C | 3000 ± 920
C16G U56C | 1880 ± 1000
G40C A42U | 411 ± 300
G40A G41A U55G | 578 ± 220
G29A U46G | 3300 ± 2100
U45G C70A | 827 ± 480
A15U G60C | 59.9 ± 33
G37A G41A | 4150 ± 2300
A33G C58G | 198 ± 140
A48G U56A | 1220 ± 750
C16G U65A | 3010 ± 580
G29U U65C | 996 ± 960
A39G C70U C71U | 103 ± 60
C16A G38U | 26.3 ± 25
A36C U49G | 2830 ± 1600
A15U A33U | 751 ± 530
U30C C67A | 268 ± 170
C16A U55G | 4520 ± 2400
G41A A42G | 915 ± 530
G40U U55A | 2130 ± 1500
U47C C67U | 825 ± 530
U45A G66U | 2090 ± 330

Variant | KM [µM]
C34U C61A | 18.6 ± 18
C16G G40A | 1140 ± 770
A33G G62U | 64.9 ± 52
C16G G32A C68U | 209 ± 170
C16G C70G | 100 ± 87
U31A G44U | 3960 ± 530
A14U U31G A39C | 4360 ± 1700
A39U U45C | 6420 ± 3600
G29U G41C U54G C70G | 2090 ± 1400
G13C G41A | 20900 ± 2500
A42G U46G | 4310 ± 2700
A14C A52G U57G | 964 ± 770
C16G A39G | 3090 ± 1700
U30C G40A | 3260 ± 1400
U30A U45A C50U | 1120 ± 750
A15C G41C | 1850 ± 570
C34A U56G | 31 ± 12
A39G U65A | 2070 ± 1200
U46G C71G | 779 ± 560
G32A G44A | 42100 ± 13000
A15G C61G | 59.5 ± 37
U47G G66U | 756 ± 130
U30A G32A | 3950 ± 2400

Variants of: B1
Assay: self-cleavage kobs at 160 uM GlcN6P; higher = faster cleavage; RNA array
Settings: with glucosamine-6-phosphate
Method in brief: as §1

Variant | self-cleavage kobs at 160 uM GlcN6P [s⁻¹]
A39C U45C | 2.29e-05 ± 1.5e-05
G13A C71G | 1.72e-05 ± 1.5e-05
A15G A64U | 2.28e-05 ± 1.7e-05
G29C U65G | 2.4e-05 ± 1.6e-05
A15C U46C | 2.26e-05 ± 1.3e-05
G29U U65C | 2.56e-05 ± 1.8e-05
G41A A42G | 2.97e-05 ± 1.7e-05
C16G G40A | 3e-05 ± 2e-05

Variants of: B1
Assay: self-cleavage kobs at 10000 uM GlcN6P; higher = faster cleavage; RNA array
Settings: with glucosamine-6-phosphate
Method in brief: as §1

Variant | self-cleavage kobs at 10000 uM GlcN6P [s⁻¹]
G40U U46C U47G | 2.44e-05 ± 1.9e-05
A53G C68G | 0.00202 ± 0.0012
A15U A48C | 2.16e-05 ± 1.4e-05
G13C G41A | 1.87e-05 ± 1.7e-05

Variants of: B1
Assay: self-cleavage kobs at 40 uM GlcN6P; higher = faster cleavage; RNA array
Settings: with glucosamine-6-phosphate
Method in brief: as §1

Variant | self-cleavage kobs at 40 uM GlcN6P [s⁻¹]
A53G C68G | 1.61e-05 ± 8.2e-06
A14U A52G | 1.88e-05 ± 1.8e-05
A15U U46C | 1.95e-05 ± 1.7e-05
A14C G41U | 2.28e-05 ± 1.5e-05
A15C A42G A53C | 1.96e-05 ± 1.8e-05
U30C C70U | 1.2e-05 ± 9.4e-06
A42C U69C | 1.81e-05 ± 1.5e-05
G29A U46G | 4.66e-05 ± 3e-05
C16G G40A | 3.3e-05 ± 1.9e-05
A39U U45C | 2.22e-05 ± 1.4e-05

Variants of: B1
Assay: self-cleavage kobs at 2500 uM GlcN6P; higher = faster cleavage; RNA array
Settings: with glucosamine-6-phosphate
Method in brief: as §1

Variant | self-cleavage kobs at 2500 uM GlcN6P [s⁻¹]
U45C U65A C67G | 0.00146 ± 0.00098
U31G G59A | 1.37e-05 ± 1.1e-05
A14G A64G | 0.0543 ± 0.038
U30G U31G | 0.0457 ± 0.025
G41U U49G | 3.23e-05 ± 2.1e-05
G29A G32A C71A | 7.14e-05 ± 3.9e-05
A33U U54A C68A | 2.88e-05 ± 2.8e-05
G13C U47G | 2.7e-05 ± 1.9e-05
A15U A48C | 1.79e-05 ± 1.7e-05
A39G U55C | 0.0598 ± 0.047
A15C G41C | 1.96e-05 ± 1.1e-05

Variants of: B1
Assay: self-cleavage kobs at 640 uM GlcN6P; higher = faster cleavage; RNA array
Settings: with glucosamine-6-phosphate
Method in brief: as §1

Variant | self-cleavage kobs at 640 uM GlcN6P [s⁻¹]
U31G G44U | 2.71e-05 ± 1.7e-05
A42U A53U | 2.24e-05 ± 1.5e-05
U47G C58U | 2.91e-05 ± 1.6e-05
A52U U55C | 2.77e-05 ± 1.4e-05
G13C U47G | 2.64e-05 ± 2.1e-05
A48U U65G C70U | 3.1e-05 ± 1.9e-05
U46G U49G | 2.49e-05 ± 1.9e-05
G40C A42U | 2.11e-05 ± 1.7e-05
G29U U65C | 1.47e-05 ± 1.1e-05
U31A G44U | 2.68e-05 ± 1.6e-05

4 records drawn at random from the list so far:
Variant | self-cleavage kobs at 640 uM GlcN6P [s⁻¹]
A48U U65G C70U | 3.1e-05 ± 1.9e-05
U47G C58U | 2.91e-05 ± 1.6e-05
A42U A53U | 2.24e-05 ± 1.5e-05
G13C U47G | 2.64e-05 ± 2.1e-05
